From publication doi:10.1101/808311 come the findings set out here.

Protein sequences, listed by entry. Tags and fused reporters are not part of them. Lines headed by an entry give the natural chain unless they say otherwise; changes in a name come on top.
UniProt Q96B77: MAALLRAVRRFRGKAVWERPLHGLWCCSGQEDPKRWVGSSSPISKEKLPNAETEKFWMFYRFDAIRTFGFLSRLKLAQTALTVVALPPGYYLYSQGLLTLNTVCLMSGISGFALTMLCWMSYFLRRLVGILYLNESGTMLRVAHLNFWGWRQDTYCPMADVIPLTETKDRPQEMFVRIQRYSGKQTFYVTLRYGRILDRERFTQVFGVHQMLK
UniProt P03891: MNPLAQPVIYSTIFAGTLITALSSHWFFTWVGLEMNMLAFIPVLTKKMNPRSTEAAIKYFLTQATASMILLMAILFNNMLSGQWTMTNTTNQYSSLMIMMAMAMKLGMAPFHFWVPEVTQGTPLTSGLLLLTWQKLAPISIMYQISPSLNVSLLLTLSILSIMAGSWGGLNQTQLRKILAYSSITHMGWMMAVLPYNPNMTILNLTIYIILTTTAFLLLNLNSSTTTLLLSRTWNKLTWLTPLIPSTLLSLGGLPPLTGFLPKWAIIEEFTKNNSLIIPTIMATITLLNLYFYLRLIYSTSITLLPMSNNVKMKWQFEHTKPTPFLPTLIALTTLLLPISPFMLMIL
UniProt P03897: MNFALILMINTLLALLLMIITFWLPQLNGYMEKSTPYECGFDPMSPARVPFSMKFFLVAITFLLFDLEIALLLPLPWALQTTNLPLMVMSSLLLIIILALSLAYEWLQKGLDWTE
UniProt P03901: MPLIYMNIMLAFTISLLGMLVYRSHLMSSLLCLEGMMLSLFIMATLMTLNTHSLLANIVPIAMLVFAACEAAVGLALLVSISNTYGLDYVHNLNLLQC

Holding throughout (assay): co-IP
The target in assay [1] is TMEM186 with a C-terminal Flag epitope (human) (UniProt Q96B77).
For assay [2] the target is unchanged. The source holds these as a separate data set.
Assay [3] shares this target. The source holds these as a separate data set.
Assay [4] shares this target. The source holds these as a separate data set.

Read-outs that look alike come from different tables or passages of the source. These are yes or no findings as the source states them, for the method shown. Binding seen in cells or lysates may run through a third protein. Binding calls can cover weak binding; strength is not graded here.

Take “ND2, newly synthesised mtDNA-encoded complex I subunit (HEK293T-derived cells) (from UniProt P03891 1-347)”: the binding entry in assay [1] is “binds”.

For the molecule “ND3, newly synthesised mtDNA-encoded complex I subunit (HEK293T-derived cells) (from UniProt P03897 1-115)”, the binding result in assay [2] and in assay [1] was “binds” in each case.

For the molecule “ND4L, newly synthesised mtDNA-encoded complex I subunit (HEK293T-derived cells) (from UniProt P03901 1-98)”, the binding result in assay [1] is “binds”.

B1: ACAD9 (endogenous, HEK293T-derived cells) (protein, UniProt Q9H845 38-621)
chain: AFAKELFLGKIKKKEVFPFPEVSQDELNEINQFLGPVEKFFTEEVDSRKIDQEGKIPDETLEKLKSLGLFGLQVPEEYGGLGFSNTMYSRLGEIISMDGSITVTLAAHQAIGLKGIILAGTEEQKAKYLPKLASGEHIAAFCLTEPASGSDAASIRSRATLSEDKKHYILNGSKVWITNGGLANIFTVFAKTEVVDSDGSVKDKITAFIVERDFGGVTNGKPEDKLGIRGSNTCEVHFENTKIPVENILGEVGDGFKVAMNILNSGRFSMGSVVAGLLKRLIEMTAEYACTRKQFNKRLSEFGLIQEKFALMAQKAYVMESMTYLTAGMLDQPGFPDCSIEAAMVKVFSSEAAWQCVSEALQILGGLGYTRDYPYERILRDTRILLIFEGTNEILRMYIALTGLQHAGRILTTRIHELKQAKVSTVMDTVGRRLRDSLGRTVDLGLTGNHGVVHPSLADSANKFEENTYCFGRTVETLLLRFGKTIMEEQLVLKRVANILINLYGMTAVLSRASRSIRIGLRNHDHEVLLANTFCVEAYLQNLFSLSQLDKYAPENLDEQIKKVSQQILEKRAYICAHPLDRTC
With B1, the binding entry in assay [3] and in assay [4] was “binds” each time.
